Measured values taken from patent US20210395356A1 (Chugai, published 2021).
No constants are given. Whether binding was seen depends on the method and setting. Some results given as binding are weak or reduced against the parent protein; the word gives no strength.

Sequences of proteins named here, by UniProt entry; tags and fusion partners are left off. Residues count along the entry.
UniProt P04202, residues 30-390: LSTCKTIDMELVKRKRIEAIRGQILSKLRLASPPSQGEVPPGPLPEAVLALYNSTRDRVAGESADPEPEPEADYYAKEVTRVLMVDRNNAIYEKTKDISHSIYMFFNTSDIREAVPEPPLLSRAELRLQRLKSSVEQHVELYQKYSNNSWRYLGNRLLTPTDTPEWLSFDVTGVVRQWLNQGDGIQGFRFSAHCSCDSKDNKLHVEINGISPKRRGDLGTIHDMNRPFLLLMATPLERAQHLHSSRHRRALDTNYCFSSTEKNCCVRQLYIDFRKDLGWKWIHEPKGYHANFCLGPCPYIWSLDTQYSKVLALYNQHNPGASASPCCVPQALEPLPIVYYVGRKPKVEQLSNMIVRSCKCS
UniProt P01137, residues 30-390: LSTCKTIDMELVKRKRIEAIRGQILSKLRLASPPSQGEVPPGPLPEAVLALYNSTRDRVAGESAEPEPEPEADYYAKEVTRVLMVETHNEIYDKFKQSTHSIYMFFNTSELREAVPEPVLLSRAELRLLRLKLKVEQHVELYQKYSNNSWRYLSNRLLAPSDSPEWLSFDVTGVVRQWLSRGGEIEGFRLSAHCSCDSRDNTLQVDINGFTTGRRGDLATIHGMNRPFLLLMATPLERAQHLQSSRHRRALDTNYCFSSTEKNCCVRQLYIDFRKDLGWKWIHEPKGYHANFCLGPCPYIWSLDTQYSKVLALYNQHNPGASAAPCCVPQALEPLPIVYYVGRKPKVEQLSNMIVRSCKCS

Legend:
[1] = molecular target: mouse cell surface latent TGF-beta 1 expressed on Ba/F3 cells (mouse) (UniProt P04202); assay: FACS, antibody at 10 microgram/mL on Ba/F3 cells
[2] = molecular target: human cell surface latent TGF-beta 1 expressed on FreeStyle 293-F cells (human) (UniProt P01137); assay: FACS, antibody at 10 microgram/mL on FreeStyle 293-F cells
[3] = molecular target: mouse cell surface latent TGF-beta 1 expressed on Ba/F3 cells (mouse) (UniProt P04202); assay: FACS on Ba/F3 cells expressing mouse latent TGF-beta 1, antibody at 10 microgram/mL, PE anti-human IgG secondary, MFI
[4] = molecular target: human cell surface latent TGF-beta 1 expressed on FreeStyle 293-F cells (human) (UniProt P01137); assay: FACS on FreeStyle 293-F cells expressing human latent TGF-beta 1, antibody at 10 microgram/mL, PE anti-human IgG secondary, MFI

Measured: binding

B1: hT0947AE09-SG191 (antibody, IgG1, V domains shown)
VH: QVQLVESGGGVVQPGRSLRLSCAASGFTFSSYAMNWIRQPPGKGLEWIGYIYTSGTRYRANWARGRFTISRDNSKNTLYLQMNSLRAEDTAVYYCARGTDIYDYYYWVMDLWGPGTLVTVSS
VL: DIQMTQSPSSLSASVGDRVTITCQASQSISTYLAWYQQKPGQPPKLLIYAASTLESGVPSRFSGSGSGTDFTLTISSLQPEDFATYYCQSYSDADSVGFGQGTKVEIKR
notes: Humanized, optimized IgG1; also called hT0947AE09-5G191; hT0947A09-SG191
binds: [1] | [2] | [3] | [4]
